Binding data for two substances are collected here from paper PMC6478693.

Amino acid sequences for entries named in this document (tags omitted).
UniProt Q8C863: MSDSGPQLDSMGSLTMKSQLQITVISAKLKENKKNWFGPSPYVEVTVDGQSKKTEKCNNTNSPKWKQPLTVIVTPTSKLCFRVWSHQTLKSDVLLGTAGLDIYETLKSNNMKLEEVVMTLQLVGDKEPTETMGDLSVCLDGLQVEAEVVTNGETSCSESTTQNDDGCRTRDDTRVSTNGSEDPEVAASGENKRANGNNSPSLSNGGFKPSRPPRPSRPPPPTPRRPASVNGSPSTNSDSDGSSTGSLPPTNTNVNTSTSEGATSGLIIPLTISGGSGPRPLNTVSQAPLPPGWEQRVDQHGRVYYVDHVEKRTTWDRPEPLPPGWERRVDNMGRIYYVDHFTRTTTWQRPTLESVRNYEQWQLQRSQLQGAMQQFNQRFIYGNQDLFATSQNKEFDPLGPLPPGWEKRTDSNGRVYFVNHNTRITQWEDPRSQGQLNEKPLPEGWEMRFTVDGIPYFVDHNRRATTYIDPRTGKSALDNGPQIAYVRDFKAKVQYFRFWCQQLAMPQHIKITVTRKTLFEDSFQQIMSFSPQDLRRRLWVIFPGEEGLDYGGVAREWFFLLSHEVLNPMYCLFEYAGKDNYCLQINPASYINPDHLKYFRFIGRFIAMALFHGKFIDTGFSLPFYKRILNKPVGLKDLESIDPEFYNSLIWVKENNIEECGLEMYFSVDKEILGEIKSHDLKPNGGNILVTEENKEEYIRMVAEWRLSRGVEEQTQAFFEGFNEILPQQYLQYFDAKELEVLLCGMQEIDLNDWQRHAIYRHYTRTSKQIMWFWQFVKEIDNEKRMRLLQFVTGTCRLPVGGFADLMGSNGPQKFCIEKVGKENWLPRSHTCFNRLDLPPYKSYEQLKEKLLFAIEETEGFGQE
UniProt P15056: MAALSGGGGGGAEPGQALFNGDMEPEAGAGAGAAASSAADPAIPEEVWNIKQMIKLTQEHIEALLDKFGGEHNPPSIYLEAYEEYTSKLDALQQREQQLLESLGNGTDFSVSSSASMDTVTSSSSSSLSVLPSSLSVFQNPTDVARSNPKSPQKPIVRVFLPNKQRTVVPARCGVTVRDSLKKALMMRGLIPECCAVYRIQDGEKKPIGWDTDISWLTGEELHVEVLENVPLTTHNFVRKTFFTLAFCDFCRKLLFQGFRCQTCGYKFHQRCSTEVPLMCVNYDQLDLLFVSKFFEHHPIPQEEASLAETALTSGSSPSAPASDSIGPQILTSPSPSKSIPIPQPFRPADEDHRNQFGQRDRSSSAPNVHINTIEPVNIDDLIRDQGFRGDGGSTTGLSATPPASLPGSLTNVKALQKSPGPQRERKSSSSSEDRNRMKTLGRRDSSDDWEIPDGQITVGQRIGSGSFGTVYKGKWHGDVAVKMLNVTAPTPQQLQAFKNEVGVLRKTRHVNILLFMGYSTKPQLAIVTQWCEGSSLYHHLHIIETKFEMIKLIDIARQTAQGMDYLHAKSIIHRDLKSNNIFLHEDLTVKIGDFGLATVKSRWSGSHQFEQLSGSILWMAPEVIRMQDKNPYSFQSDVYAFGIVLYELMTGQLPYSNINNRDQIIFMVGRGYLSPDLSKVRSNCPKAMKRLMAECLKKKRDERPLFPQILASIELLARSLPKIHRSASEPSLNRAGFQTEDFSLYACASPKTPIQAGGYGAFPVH

These are yes or no findings as the source states them, for the method shown. In cells and extracts the contact can be indirect. Some results given as binding are weak or reduced against the parent protein; the word gives no strength. For some of these results: Where a sequence is shown, tags or fusion partners need not be part of it.

One test concerns the target GST-ITCH (UniProt Q8C863). In words: pull-down; agarose-bound GST fusion proteins incubated with in vitro transcribed and translated HA-BRAF, 4 °C, 3-4 h, washes in NETN buffer; only the target purified.
Another test concerns the target Flag-BRAF (wild type) (UniProt P15056). Put plainly: co-IP; 293T cells transfected with HA-ITCH and Flag-RAF or Flag-BRAF constructs; 10 µM MG132 for 12 h before harvest; lysis in EBC buffer, washes in NETN buffer.
The target in another test is T1, Flag-ARAF (UniProt P10398).
T1 sequence: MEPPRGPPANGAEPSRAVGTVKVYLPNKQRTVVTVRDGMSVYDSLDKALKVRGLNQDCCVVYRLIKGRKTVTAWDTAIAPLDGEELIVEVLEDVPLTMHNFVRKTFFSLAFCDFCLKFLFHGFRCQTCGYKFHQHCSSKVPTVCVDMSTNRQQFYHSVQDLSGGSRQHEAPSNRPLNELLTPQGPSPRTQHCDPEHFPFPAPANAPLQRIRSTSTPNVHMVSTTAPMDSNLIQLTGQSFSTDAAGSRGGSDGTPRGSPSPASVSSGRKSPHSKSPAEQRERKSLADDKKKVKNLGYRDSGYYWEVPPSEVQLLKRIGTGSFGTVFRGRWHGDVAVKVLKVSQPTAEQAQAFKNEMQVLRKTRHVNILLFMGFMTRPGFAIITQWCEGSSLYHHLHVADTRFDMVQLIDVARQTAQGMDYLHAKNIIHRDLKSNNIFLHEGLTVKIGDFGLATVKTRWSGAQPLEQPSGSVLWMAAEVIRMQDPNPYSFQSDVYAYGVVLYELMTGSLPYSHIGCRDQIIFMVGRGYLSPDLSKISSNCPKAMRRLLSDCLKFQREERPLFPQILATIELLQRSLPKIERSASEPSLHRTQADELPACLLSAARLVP
The test is described as above.

Another test concerns the target Flag-CRAF (UniProt P04049). The test is described as above.

With “In vitro transcribed and translated HA-BRAF (from UniProt P15056 1-766)”, in the test with GST-ITCH, the binding entry is reported as “binds”.

For “HA-ITCH (from UniProt Q8C863 1-864) (enzyme)”, the binding entry with Flag-BRAF (wild type), in the test with Flag-ARAF and with Flag-CRAF was “binds” in each case.
